# The other results are listed elsewhere or left out. Hit calls seldom repeat between salt and free forms of one compound.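 In K562 cells expressing nanoluciferase-fused kinases, luminescence was recorded at 4 h intervals between 2 and 18 h, normalized as percent of control with DMSO at 100% and a positive control at 0%. A significant (2 sigma) signal drop marks a time point as decreased. The authors' rule for a hit is not shown and takes in more than the number of time points.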
# Sequences of proteins named here, by UniProt entry; tags and fusion partners are left off. A change or cut given only in a name is not applied to a line headed by its entry.
# UniProt P42680: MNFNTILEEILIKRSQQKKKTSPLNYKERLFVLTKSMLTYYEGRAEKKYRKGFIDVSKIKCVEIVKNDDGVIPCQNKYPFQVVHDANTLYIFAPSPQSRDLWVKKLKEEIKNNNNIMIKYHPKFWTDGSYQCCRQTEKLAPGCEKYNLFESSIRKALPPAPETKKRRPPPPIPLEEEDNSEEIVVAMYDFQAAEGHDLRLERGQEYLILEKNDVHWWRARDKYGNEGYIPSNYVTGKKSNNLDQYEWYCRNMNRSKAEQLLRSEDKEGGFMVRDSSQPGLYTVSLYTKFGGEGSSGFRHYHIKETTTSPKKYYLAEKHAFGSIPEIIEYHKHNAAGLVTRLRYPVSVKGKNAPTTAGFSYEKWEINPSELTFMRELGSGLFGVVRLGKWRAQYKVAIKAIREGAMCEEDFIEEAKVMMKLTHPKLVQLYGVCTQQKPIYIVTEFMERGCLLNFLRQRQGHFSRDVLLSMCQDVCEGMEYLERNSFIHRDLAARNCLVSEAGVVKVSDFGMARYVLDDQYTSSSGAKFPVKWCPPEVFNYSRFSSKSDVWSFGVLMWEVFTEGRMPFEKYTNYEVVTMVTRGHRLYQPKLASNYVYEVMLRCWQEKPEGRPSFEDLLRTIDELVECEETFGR
# UniProt Q6PHR2: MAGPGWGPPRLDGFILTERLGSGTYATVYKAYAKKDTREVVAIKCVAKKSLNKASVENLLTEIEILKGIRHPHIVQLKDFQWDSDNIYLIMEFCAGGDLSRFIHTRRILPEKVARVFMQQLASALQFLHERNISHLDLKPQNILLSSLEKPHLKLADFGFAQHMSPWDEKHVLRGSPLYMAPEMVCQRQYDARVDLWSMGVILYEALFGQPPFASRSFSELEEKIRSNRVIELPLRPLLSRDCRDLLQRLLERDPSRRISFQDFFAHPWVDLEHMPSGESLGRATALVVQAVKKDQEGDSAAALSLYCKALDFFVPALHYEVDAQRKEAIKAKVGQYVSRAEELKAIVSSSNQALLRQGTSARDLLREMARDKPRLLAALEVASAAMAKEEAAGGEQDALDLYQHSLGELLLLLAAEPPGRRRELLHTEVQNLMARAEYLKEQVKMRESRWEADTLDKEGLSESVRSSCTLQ
# UniProt P43403: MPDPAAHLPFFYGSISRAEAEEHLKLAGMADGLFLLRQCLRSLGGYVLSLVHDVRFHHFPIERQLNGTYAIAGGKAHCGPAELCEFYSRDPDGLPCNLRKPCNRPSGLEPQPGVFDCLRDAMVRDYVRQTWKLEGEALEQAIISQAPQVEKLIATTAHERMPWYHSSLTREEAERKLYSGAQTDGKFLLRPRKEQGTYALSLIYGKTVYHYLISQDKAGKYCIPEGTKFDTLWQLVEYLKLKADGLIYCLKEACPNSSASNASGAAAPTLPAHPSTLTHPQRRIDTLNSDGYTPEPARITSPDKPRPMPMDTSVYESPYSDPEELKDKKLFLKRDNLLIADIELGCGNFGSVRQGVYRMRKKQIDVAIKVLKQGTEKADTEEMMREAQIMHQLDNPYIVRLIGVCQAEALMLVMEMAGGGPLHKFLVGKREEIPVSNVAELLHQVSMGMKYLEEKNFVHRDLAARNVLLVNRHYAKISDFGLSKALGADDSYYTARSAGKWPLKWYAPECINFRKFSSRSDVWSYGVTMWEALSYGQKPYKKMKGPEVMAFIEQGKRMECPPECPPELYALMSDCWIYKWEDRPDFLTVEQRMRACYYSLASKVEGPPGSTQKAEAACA
# UniProt P00519, whole entry: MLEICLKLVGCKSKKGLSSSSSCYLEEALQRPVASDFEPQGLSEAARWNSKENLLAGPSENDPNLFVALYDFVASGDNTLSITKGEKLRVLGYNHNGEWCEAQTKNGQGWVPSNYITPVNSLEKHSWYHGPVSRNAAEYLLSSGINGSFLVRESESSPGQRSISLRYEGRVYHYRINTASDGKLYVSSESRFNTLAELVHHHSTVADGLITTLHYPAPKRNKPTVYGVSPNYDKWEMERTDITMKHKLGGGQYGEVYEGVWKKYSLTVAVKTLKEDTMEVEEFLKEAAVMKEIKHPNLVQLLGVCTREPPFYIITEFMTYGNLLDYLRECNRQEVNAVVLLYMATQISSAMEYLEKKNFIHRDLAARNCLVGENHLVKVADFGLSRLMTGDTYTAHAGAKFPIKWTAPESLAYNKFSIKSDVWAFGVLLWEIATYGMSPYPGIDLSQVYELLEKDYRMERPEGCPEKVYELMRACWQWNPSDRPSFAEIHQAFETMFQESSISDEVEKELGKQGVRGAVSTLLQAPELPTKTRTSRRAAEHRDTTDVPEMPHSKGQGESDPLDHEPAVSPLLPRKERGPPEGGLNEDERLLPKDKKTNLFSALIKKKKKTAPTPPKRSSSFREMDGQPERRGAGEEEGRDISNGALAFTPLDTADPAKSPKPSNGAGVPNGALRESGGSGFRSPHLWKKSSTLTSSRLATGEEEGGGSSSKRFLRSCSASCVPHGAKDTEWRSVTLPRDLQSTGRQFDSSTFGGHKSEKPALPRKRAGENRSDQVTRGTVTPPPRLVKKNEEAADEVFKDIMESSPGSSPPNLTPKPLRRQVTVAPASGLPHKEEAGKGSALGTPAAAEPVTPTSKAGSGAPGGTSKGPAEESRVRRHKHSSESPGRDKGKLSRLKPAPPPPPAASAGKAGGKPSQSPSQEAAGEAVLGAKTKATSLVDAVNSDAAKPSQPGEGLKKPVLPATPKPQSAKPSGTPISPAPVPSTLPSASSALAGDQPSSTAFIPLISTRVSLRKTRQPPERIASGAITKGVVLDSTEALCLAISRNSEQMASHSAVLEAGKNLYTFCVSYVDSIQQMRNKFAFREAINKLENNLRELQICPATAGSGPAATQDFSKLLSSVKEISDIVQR
# UniProt P31749: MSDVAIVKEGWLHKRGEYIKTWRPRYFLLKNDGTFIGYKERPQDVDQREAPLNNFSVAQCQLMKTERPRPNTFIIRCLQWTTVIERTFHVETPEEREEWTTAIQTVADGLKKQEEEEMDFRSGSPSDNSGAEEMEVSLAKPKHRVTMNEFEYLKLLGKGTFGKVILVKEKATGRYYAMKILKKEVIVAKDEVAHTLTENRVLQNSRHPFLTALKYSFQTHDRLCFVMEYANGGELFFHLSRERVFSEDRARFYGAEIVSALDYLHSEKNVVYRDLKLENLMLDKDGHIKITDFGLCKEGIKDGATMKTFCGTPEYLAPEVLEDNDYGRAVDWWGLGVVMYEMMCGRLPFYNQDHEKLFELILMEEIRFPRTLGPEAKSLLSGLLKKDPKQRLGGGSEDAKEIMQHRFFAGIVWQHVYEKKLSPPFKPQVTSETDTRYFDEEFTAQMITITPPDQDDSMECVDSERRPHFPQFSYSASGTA
# UniProt Q9UM73: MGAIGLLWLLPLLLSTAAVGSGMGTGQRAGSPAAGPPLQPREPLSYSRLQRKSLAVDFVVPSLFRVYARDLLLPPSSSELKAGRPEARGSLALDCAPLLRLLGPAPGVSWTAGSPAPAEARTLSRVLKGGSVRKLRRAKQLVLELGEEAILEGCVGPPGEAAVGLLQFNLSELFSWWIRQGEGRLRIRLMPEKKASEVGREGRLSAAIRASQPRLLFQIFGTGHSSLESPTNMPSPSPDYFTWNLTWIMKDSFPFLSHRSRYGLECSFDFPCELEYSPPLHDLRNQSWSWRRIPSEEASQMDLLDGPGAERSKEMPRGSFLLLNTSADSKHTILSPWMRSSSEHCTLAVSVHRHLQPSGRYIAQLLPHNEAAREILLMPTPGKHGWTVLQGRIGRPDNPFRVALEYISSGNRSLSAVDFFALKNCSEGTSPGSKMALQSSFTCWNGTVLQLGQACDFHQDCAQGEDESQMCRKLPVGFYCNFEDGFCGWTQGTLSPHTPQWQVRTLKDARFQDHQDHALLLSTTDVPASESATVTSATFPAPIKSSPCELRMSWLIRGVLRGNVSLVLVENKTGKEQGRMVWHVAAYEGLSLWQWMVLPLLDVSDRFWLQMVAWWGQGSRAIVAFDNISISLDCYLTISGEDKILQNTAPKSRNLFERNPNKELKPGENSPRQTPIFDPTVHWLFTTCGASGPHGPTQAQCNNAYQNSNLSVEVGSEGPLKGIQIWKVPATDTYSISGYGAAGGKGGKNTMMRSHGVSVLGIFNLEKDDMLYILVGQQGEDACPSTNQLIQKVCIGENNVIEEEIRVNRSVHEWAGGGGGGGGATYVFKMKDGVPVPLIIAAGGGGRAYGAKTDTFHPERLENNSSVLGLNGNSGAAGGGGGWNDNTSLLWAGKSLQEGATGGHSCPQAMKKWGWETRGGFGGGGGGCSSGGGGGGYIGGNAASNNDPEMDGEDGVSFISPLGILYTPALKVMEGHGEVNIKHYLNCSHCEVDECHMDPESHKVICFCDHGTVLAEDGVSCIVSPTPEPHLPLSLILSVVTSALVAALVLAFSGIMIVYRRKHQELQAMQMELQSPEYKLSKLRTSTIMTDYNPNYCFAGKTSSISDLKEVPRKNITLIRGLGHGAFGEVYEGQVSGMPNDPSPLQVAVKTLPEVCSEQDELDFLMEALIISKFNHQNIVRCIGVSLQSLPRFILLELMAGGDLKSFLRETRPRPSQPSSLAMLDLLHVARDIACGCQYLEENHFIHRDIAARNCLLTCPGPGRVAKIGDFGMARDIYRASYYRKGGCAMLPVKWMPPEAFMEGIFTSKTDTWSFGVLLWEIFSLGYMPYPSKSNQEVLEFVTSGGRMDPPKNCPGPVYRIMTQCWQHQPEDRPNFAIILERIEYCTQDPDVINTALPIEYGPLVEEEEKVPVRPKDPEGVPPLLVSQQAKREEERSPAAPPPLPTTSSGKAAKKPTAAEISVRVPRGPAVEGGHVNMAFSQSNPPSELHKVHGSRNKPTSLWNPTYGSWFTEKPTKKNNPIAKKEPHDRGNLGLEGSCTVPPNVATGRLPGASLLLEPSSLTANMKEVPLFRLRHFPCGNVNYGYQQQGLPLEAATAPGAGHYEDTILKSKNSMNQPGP
# UniProt P10398: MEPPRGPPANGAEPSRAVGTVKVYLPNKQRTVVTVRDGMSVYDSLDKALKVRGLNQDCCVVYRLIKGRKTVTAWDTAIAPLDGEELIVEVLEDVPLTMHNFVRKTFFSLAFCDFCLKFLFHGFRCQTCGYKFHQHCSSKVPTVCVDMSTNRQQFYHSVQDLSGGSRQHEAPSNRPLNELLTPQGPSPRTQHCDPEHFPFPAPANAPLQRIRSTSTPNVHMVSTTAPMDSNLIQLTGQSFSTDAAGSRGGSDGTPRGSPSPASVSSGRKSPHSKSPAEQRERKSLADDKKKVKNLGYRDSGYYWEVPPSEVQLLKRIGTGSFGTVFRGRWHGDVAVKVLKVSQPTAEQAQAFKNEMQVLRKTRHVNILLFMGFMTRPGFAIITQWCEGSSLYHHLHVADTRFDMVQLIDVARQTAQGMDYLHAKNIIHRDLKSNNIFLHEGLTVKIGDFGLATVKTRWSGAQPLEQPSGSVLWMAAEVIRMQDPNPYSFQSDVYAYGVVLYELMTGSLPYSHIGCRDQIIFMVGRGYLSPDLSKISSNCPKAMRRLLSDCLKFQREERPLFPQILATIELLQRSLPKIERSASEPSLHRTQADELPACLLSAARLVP
# UniProt O14965: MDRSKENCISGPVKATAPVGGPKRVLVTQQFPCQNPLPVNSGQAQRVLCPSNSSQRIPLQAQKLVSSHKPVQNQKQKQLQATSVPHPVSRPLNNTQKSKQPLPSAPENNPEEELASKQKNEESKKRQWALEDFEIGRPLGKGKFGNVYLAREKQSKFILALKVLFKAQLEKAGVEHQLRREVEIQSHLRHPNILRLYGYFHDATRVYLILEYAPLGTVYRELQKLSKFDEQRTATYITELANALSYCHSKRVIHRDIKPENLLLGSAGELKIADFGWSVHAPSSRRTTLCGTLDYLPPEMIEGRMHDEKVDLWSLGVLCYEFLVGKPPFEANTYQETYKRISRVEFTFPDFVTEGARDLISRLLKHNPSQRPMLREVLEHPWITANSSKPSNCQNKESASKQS
# UniProt Q96GD4, whole entry: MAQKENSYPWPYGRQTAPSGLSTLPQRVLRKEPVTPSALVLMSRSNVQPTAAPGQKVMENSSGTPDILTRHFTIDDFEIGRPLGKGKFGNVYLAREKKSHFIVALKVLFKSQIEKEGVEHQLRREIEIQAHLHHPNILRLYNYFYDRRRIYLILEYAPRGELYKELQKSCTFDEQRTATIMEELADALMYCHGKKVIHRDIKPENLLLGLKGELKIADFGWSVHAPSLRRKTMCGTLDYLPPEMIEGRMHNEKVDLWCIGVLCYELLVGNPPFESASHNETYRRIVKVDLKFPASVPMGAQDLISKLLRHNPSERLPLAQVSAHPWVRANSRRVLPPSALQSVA
# Key:
# Conditions in all cases: K562; 2-18 h
# STK38 = STK38 (UniProt Q15208); experiment: kinase-Nluc reporter destabilization hit call (1 = scored as downregulated) (binary); higher = compound decreases kinase abundance
# SYK = SYK (UniProt P43405); experiment: as above
# TEC = TEC (UniProt P42680); experiment: as above
# TYK2 = TYK2 (UniProt P29597); experiment: as above
# ULK3 = ULK3 (UniProt Q6PHR2); experiment: as above
# YES1 = YES1 (UniProt P07947); experiment: as above
# ZAK = ZAK (UniProt Q9NYL2); experiment: as above
# ZAP70 = ZAP70 (UniProt P43403); experiment: as above
# ABL1 = ABL1 (UniProt P00519); experiment: number of time points (of 5) at which kinase-Nluc abundance scored as decreased, DMSO-normalised (count); higher = more persistent destabilization
# AKT1 = AKT1 (UniProt P31749); experiment: as above
# ALK = ALK (UniProt Q9UM73); experiment: as above
# ARAF = ARAF (UniProt P10398); experiment: as above
# AURKA = AURKA (UniProt O14965); experiment: as above
# AURKB = AURKB (UniProt Q96GD4); experiment: as above
# AURKC = AURKC (UniProt Q9UQB9); experiment: as above
# BLK = BLK (UniProt P51451); experiment: as above
# BMX = BMX (UniProt P51813); experiment: as above
# BRAF = BRAF (UniProt P15056); experiment: as above
# BRAF_V600E = experiment: as above
# BTK = BTK (UniProt Q06187); experiment: as above
Structure (SMILES),kinase-Nluc reporter destabilization hit call (STK38),kinase-Nluc reporter destabilization hit call (SYK),kinase-Nluc reporter destabilization hit call (TEC),kinase-Nluc reporter destabilization hit call (TYK2),kinase-Nluc reporter destabilization hit call (ULK3),kinase-Nluc reporter destabilization hit call (YES1),kinase-Nluc reporter destabilization hit call (ZAK),kinase-Nluc reporter destabilization hit call (ZAP70),number of time points (ABL1),number of time points (AKT1),number of time points (ALK),number of time points (ARAF),number of time points (AURKA),number of time points (AURKB),number of time points (AURKC),number of time points (BLK),number of time points (BMX),number of time points (BRAF),number of time points (BRAF_V600E),number of time points (BTK)
CCCn1cnc2c(NCc3ccccc3)nc(NC(CC)CO)nc21 (stereo not drawn) [Ca2+ channel agonist 1] (2.5 µM),inactive: 0,inactive: 0,inactive: 0,inactive: 0,inactive: 0,inactive: 0,inactive: 0,inactive: 0,0,0,0,0,0,0,0,0,0,0,0,0
N#C/C(=C\c1ccc(O)c(O)c1)C(=O)NCc1ccccc1 (10 µM),inactive: 0,inactive: 0,inactive: 0,inactive: 0,inactive: 0,inactive: 0,inactive: 0,inactive: 0,0,0,0,0,0,0,0,0,0,0,0,0
CCN(CCCOc1ccc2c(Nc3cc(CC(=O)Nc4cccc(F)c4)[nH]n3)ncnc2c1)CCOP(=O)(O)O [Barasertib] (10 µM),inactive: 0,inactive: 0,inactive: 0,inactive: 0,inactive: 0,inactive: 0,inactive: 0,inactive: 0,0,0,0,0,0,0,0,0,3,0,2,0
CN1CCN(S(=O)(=O)c2ccc(-c3cnc(N)c(C(=O)Nc4cccnc4)n3)cc2)CC1 (10 µM),inactive: 0,inactive: 0,inactive: 0,inactive: 0,inactive: 0,inactive: 0,inactive: 0,inactive: 0,0,0,0,0,0,0,0,0,2,0,–,0
COc1cc(N2CCC(N)CC2)ccc1Nc1ncc(Cl)c(-c2c[nH]c3ccccc23)n1 (2.5 µM),inactive: 0,inactive: 0,inactive: 0,inactive: 0,inactive: 0,inactive: 0,inactive: 0,inactive: 0,0,0,0,0,0,0,0,0,0,0,0,0
COCCNCCc1cccc(Nc2ncc3c(n2)-c2ccccc2[C@H](c2ccccc2F)C3)c1 [Derazantinib] (2.5 µM),inactive: 0,inactive: 0,inactive: 0,inactive: 0,inactive: 0,inactive: 0,inactive: 0,inactive: 0,0,0,0,0,0,0,0,0,1,0,0,0
Cc1cc(F)c(C(=O)Nc2cccc(-c3nncn3C(C)C)n2)cc1-n1cnc(C2CC2)c1 [Selonsertib] (10 µM),inactive: 0,inactive: 0,inactive: 0,inactive: 0,inactive: 0,inactive: 0,inactive: 0,inactive: 0,0,0,0,0,0,0,0,0,0,0,–,0
COc1ccc(C=C(C#N)c2cccnc2)cc1OC (10 µM),inactive: 0,inactive: 0,inactive: 0,inactive: 0,inactive: 0,inactive: 0,inactive: 0,inactive: 0,0,0,0,0,0,0,0,0,0,0,0,0
CC(C)CC(=O)Nc1n[nH]c2c1CN(C(=O)C1CCN(C)CC1)C2(C)C (2.5 µM),inactive: 0,inactive: 0,inactive: 0,inactive: 0,inactive: 0,inactive: 0,inactive: 0,inactive: 0,1,0,2,0,3,1,0,0,0,0,1,0

# From the supplement of paper PMC12823440, “Inhibitors supercharge kinase turnover through native proteolytic circuits” (Nature, 2025)
